Data published in PMC3762332.

Sequences of proteins named here, by UniProt entry; tags and fusion partners are left off. A change or cut given only in a name is not applied to a line headed by its entry.
UniProt Q9BWM5: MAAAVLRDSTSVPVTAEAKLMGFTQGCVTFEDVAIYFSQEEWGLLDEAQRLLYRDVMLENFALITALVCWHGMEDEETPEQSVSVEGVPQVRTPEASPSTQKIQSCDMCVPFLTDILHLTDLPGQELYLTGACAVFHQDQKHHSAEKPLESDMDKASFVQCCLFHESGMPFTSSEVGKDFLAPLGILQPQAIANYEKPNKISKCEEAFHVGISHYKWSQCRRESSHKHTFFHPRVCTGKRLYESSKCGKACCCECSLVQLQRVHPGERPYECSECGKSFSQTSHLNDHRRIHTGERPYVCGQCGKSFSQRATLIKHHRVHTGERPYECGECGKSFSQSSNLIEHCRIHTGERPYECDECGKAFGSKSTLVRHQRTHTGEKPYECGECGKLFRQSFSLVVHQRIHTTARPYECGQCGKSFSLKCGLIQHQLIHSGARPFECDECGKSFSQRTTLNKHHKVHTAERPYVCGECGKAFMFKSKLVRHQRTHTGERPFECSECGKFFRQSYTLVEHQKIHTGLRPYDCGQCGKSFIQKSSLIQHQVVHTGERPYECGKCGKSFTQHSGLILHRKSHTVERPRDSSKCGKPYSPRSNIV
UniProt O00716: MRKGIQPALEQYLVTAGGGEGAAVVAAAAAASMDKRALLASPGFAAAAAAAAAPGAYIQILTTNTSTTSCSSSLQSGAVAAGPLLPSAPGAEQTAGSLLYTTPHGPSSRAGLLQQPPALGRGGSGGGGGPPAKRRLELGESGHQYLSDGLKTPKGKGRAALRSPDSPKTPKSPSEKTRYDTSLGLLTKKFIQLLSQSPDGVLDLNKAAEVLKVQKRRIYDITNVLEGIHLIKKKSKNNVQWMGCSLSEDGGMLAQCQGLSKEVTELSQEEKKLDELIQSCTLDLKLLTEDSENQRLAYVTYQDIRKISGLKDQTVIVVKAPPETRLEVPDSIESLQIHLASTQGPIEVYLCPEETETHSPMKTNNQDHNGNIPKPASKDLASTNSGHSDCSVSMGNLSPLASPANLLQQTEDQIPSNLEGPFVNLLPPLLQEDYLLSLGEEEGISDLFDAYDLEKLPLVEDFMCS
UniProt P20719: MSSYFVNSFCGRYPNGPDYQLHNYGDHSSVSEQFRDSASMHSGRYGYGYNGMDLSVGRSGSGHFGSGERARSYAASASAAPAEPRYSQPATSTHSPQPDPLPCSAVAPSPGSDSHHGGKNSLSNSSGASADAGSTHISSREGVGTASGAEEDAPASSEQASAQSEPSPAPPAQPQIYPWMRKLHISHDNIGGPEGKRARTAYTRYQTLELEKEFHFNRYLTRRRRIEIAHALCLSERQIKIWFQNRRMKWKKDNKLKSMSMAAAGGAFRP
UniProt Q8NC26: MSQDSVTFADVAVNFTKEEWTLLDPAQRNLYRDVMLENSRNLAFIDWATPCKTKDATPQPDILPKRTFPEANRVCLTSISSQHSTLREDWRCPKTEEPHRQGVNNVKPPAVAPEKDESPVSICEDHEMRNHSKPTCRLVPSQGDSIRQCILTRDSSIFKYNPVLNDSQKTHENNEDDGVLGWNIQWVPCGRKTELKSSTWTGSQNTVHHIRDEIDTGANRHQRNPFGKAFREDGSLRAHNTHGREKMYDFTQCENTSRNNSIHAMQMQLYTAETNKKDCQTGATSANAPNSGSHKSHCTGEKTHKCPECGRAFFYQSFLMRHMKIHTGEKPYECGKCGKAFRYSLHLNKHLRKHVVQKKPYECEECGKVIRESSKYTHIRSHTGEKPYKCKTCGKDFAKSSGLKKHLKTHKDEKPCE
UniProt Q8IW36: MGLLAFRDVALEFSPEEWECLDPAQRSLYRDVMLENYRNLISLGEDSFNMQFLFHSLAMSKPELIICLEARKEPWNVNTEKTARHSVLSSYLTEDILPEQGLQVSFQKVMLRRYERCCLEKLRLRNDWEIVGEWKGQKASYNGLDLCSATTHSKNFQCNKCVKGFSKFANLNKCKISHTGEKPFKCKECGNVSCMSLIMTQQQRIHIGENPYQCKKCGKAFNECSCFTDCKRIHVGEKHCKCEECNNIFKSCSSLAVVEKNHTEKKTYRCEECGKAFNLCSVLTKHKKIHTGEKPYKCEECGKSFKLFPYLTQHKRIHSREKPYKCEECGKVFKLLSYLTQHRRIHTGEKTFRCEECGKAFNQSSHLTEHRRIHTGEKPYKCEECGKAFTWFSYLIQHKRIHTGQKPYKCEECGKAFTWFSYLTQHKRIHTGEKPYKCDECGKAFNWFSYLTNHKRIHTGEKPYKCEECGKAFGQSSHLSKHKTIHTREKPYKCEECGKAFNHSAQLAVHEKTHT
UniProt P37231: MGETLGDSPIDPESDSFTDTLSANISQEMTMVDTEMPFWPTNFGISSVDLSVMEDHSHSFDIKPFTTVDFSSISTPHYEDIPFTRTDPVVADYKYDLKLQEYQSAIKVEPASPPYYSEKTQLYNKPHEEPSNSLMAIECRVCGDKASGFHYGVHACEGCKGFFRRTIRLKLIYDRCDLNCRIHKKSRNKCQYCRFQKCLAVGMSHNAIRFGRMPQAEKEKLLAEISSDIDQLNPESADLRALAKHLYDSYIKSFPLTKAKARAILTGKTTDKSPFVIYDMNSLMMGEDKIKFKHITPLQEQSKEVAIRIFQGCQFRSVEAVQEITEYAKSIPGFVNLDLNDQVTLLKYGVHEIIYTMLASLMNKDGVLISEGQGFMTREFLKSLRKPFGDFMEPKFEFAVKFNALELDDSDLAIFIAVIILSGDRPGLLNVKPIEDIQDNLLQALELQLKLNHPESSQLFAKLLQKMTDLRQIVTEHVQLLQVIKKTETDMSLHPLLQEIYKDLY
UniProt P43694: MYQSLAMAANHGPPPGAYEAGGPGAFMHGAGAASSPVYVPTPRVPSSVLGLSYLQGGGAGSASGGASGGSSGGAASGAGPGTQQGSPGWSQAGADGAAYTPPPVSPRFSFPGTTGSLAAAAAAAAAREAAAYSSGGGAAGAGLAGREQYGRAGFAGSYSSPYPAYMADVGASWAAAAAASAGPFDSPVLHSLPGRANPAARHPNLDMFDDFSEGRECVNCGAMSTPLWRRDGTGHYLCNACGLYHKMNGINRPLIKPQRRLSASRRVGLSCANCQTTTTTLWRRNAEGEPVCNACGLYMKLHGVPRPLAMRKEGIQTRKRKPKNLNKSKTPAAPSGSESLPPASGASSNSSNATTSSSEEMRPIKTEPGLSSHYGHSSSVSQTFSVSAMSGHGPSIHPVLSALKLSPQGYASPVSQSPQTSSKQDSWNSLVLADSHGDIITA

Experiments:
Test in all cases: protein microarray
Conditions in all cases: 10-fold cold unmethylated competitor; 5mC at CpG (SssI, both strands); recombinant protein; protein details: GST (N-terminal); label: Cy5
ZNF416 (Homo sapiens) = ZNF416 (Homo sapiens) (UniProt Q9BWM5)
E2F3 (Homo sapiens) = E2F3 (Homo sapiens) (UniProt O00716)
HOXA5 (Homo sapiens) = HOXA5 (Homo sapiens) (UniProt P20719)
ZNF114 (Homo sapiens) = ZNF114 (Homo sapiens) (UniProt Q8NC26)
ZNF695 (Homo sapiens) = ZNF695 (Homo sapiens) (UniProt Q8IW36)
SCAPER (Homo sapiens) = biological target: T1, SCAPER (Homo sapiens) (UniProt Q9BY12)
T1 sequence (looked up, limits assumed): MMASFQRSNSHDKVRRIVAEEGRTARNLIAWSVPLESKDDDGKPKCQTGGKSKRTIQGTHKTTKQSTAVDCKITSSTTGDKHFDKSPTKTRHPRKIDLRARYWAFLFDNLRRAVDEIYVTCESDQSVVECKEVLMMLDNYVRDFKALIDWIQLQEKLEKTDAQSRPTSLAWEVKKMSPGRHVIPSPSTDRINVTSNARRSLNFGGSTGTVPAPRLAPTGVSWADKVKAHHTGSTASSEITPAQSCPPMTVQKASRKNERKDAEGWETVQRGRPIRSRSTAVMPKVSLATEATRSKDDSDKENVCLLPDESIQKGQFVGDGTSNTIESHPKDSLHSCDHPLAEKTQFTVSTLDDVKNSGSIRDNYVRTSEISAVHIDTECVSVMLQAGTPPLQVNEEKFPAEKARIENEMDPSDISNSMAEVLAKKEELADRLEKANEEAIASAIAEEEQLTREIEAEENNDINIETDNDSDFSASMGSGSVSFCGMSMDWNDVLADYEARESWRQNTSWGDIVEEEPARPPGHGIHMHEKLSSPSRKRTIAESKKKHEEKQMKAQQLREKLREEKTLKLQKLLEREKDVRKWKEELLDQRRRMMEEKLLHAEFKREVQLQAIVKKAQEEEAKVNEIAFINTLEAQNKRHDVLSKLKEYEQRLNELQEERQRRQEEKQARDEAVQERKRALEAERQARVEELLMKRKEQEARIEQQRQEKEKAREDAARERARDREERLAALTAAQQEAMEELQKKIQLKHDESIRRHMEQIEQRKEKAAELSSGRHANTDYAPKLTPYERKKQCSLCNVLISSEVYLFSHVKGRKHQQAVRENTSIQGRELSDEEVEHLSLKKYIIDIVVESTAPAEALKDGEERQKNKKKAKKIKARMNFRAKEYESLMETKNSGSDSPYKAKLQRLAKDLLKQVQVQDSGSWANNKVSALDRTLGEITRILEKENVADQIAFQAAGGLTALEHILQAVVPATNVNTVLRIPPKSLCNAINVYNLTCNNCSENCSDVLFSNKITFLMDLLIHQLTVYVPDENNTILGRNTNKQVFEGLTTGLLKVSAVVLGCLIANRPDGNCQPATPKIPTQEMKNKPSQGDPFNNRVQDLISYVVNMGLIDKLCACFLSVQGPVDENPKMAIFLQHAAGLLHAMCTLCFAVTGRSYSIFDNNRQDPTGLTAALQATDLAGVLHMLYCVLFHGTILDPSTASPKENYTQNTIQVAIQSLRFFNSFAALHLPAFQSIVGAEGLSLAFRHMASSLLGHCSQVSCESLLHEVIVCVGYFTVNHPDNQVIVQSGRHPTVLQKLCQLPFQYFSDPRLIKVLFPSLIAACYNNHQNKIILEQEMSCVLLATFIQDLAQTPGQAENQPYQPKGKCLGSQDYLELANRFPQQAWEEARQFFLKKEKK

PPARG (Homo sapiens) = PPARG (Homo sapiens) (UniProt P37231)
GATA4 (Homo sapiens) = GATA4 (Homo sapiens) (UniProt P43694)

Measured: binding result

AACTCCCATTAGCGTTAATGGCCCAACTCCCATTAGCGTTAATGGCCCTATAGTGAGTGCTATTA (double strand) [M134]
binds: ZNF416 (Homo sapiens) | E2F3 (Homo sapiens) | HOXA5 (Homo sapiens)

AATCCGACTCCCAATCCGACTCCCTATAGTGAGTGCTATTA (double strand) [M289]
binds: ZNF416 (Homo sapiens) | ZNF114 (Homo sapiens) | ZNF695 (Homo sapiens)

ACGCGGCTTTACGCGGCCCCTATAGTGAGTGCTATTA (double strand) [M314]
binds: ZNF114 (Homo sapiens) | HOXA5 (Homo sapiens)

ACGTGATCTCCCACGTGATCTCCCTATAGTGAGTGCTATTA (double strand) [M253]
binds: ZNF416 (Homo sapiens) | ZNF114 (Homo sapiens) | E2F3 (Homo sapiens) | ZNF695 (Homo sapiens)

ACTTCCGTTCCCACTTCCGTTCCCTATAGTGAGTGCTATTA (double strand) [M260]
binds: ZNF416 (Homo sapiens) | ZNF114 (Homo sapiens) | ZNF695 (Homo sapiens)

ACTTCGCTTTTACTTCGCTCCCTATAGTGAGTGCTATTA (double strand) [M423]
binds: ZNF416 (Homo sapiens) | ZNF114 (Homo sapiens) | HOXA5 (Homo sapiens) | SCAPER (Homo sapiens)

AGATATCGGGGAGATATCGCCCTATAGTGAGTGCTATTA (double strand) [M427]
binds: ZNF416 (Homo sapiens) | ZNF114 (Homo sapiens) | HOXA5 (Homo sapiens) | PPARG (Homo sapiens) | SCAPER (Homo sapiens)

AGGACGATAAAAGGACGATCCCTATAGTGAGTGCTATTA (double strand) [M429]
binds: ZNF416 (Homo sapiens) | ZNF114 (Homo sapiens) | HOXA5 (Homo sapiens)

AGGAGCTCGAGTCCAAAAGGAGCTCGAGTCCCCCTATAGTGAGTGCTATTA (double strand) [M239]
binds: ZNF416 (Homo sapiens) | ZNF114 (Homo sapiens) | ZNF695 (Homo sapiens) | GATA4 (Homo sapiens)

AGGCGCGTTTAGGCGCGCCCTATAGTGAGTGCTATTA (double strand) [M296]
binds: ZNF114 (Homo sapiens)

ATCGTGTCAAAATCGTGTCCCCTATAGTGAGTGCTATTA (double strand) [M421]
binds: ZNF416 (Homo sapiens) | ZNF114 (Homo sapiens) | GATA4 (Homo sapiens) | HOXA5 (Homo sapiens) | SCAPER (Homo sapiens)

ATTGGACGTTTATTGGACGCCCTATAGTGAGTGCTATTA (double strand) [M418]
binds: ZNF416 (Homo sapiens) | ZNF114 (Homo sapiens) | GATA4 (Homo sapiens) | HOXA5 (Homo sapiens) | SCAPER (Homo sapiens)

CACATCTGGACAGATGTGGGCGAAACACATCTGGACAGATGTGGGCGCCCTATAGTGAGTGCTATTA (double strand) [M47]
not listed: ZNF695 (Homo sapiens) | GATA4 (Homo sapiens)
binds: all other assays above

CCCGATAGAAACCCGATAGCCCTATAGTGAGTGCTATTA (double strand) [M430]
binds: ZNF416 (Homo sapiens) | ZNF114 (Homo sapiens) | HOXA5 (Homo sapiens) | PPARG (Homo sapiens) | SCAPER (Homo sapiens)

CCCGGAAAGAAACCCGGAAAGCCCTATAGTGAGTGCTATTA (double strand) [M251]
binds: ZNF416 (Homo sapiens) | ZNF114 (Homo sapiens) | E2F3 (Homo sapiens) | ZNF695 (Homo sapiens)

CCGAAGACGAAACCGAAGACGCCCTATAGTGAGTGCTATTA (double strand) [M263]
binds: ZNF416 (Homo sapiens) | E2F3 (Homo sapiens)

CCGGAAGTCCCCCGGAAGTCCCTATAGTGAGTGCTATTA (double strand) [M60]
not listed: SCAPER (Homo sapiens) | PPARG (Homo sapiens)
binds: all other assays above

CCGGGCCAAACCGGGCCCCCTATAGTGAGTGCTATTA (double strand) [M77]
not listed: ZNF695 (Homo sapiens) | PPARG (Homo sapiens)
binds: all other assays above

CGCATAAACCCCGCATAAACCCTATAGTGAGTGCTATTA (double strand) [M460]
binds: ZNF416 (Homo sapiens) | ZNF114 (Homo sapiens) | HOXA5 (Homo sapiens)

CGCGCACAAACGCGCACCCCTATAGTGAGTGCTATTA (double strand) [M75]
binds: ZNF114 (Homo sapiens) | HOXA5 (Homo sapiens)

CTGCGGCAAACTGCGGCCCCTATAGTGAGTGCTATTA (double strand) [M295]
binds: ZNF416 (Homo sapiens) | ZNF114 (Homo sapiens) | E2F3 (Homo sapiens) | ZNF695 (Homo sapiens)

CTTTCGATTTCCCCTTTCGATTTCCCTATAGTGAGTGCTATTA (double strand) [M248]
binds: ZNF416 (Homo sapiens) | ZNF114 (Homo sapiens) | E2F3 (Homo sapiens) | ZNF695 (Homo sapiens)

GACCACGTGGTCAAAGACCACGTGGTCCCCTATAGTGAGTGCTATTA (double strand) [M21]
binds: ZNF416 (Homo sapiens) | ZNF114 (Homo sapiens) | ZNF695 (Homo sapiens)

GAGGCGCAAAGAGGCGCCCCTATAGTGAGTGCTATTA (double strand) [M290]
binds: ZNF416 (Homo sapiens) | ZNF114 (Homo sapiens) | ZNF695 (Homo sapiens)

GCGCCAATGAAAGCGCCAATGCCCTATAGTGAGTGCTATTA (double strand) [M259]
binds: ZNF416 (Homo sapiens) | ZNF114 (Homo sapiens) | ZNF695 (Homo sapiens)

GCGCTTGCGCATGCGAAAGCGCTTGCGCATGCGCCCTATAGTGAGTGCTATTA (double strand) [M48]
binds: ZNF416 (Homo sapiens) | ZNF114 (Homo sapiens) | HOXA5 (Homo sapiens)

GCGTCTTACAAAGCGTCTTACCCCTATAGTGAGTGCTATTA (double strand) [M256]
binds: ZNF416 (Homo sapiens) | ZNF114 (Homo sapiens) | ZNF695 (Homo sapiens)

GCTTTTACGGGGGCTTTTACGCCCTATAGTGAGTGCTATTA (double strand) [M412]
binds: ZNF416 (Homo sapiens) | ZNF114 (Homo sapiens) | HOXA5 (Homo sapiens)

GGAAATCCCGCAAAGGAAATCCCGCCCCTATAGTGAGTGCTATTA (double strand) [M223]
binds: ZNF416 (Homo sapiens) | ZNF114 (Homo sapiens) | ZNF695 (Homo sapiens)

GGCCGTTCTTTTGGCCGTTCTCCCTATAGTGAGTGCTATTA (double strand) [M390]
binds: ZNF416 (Homo sapiens) | ZNF114 (Homo sapiens) | ZNF695 (Homo sapiens) | SCAPER (Homo sapiens)

GTTGCCGGGCAACAAAGTTGCCGGGCAACCCCTATAGTGAGTGCTATTA (double strand) [M226]
binds: ZNF416 (Homo sapiens) | ZNF114 (Homo sapiens) | ZNF695 (Homo sapiens)

TCAGCACCACGGACAGAAATCAGCACCACGGACAGCCCTATAGTGAGTGCTATTA (double strand) [M137]
not listed: PPARG (Homo sapiens)
binds: all other assays above

TCTCGCGAGAAAATCTCGCGAGACCCTATAGTGAGTGCTATTA (double strand) [M199]
binds: ZNF416 (Homo sapiens)

TGCGCAACAAAATGCGCAACACCCTATAGTGAGTGCTATTA (double strand) [M284]
binds: ZNF114 (Homo sapiens)

TTTCCCGCCAAATTTCCCGCCCCCTATAGTGAGTGCTATTA (double strand) [M236]
binds: ZNF416 (Homo sapiens) | ZNF114 (Homo sapiens) | E2F3 (Homo sapiens) | ZNF695 (Homo sapiens) | GATA4 (Homo sapiens)

The exact form of at least one protein or probe is not confirmed. For part of these data: Where a protein sequence is shown, tags need not be part of it.
